The source of these data is publication PMC4947919.

This assay deals with T1, Annexin A1 (mouse (endogenous in BV-2)) (UniProt P10107).
T1 sequence: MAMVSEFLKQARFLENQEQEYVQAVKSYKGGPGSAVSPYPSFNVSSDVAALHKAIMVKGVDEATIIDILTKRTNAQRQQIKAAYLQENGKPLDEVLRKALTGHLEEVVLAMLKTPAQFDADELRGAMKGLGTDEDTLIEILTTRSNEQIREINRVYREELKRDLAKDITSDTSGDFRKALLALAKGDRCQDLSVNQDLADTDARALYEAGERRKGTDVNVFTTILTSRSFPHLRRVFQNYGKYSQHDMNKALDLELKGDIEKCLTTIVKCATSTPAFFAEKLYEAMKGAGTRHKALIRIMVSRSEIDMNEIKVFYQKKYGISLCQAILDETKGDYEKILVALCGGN
Nature of the assay: co-IP; BV-2 microglial cell lysates, control and OGD/R conditions; immunoprecipitation with polyclonal anti-ANXA1 overnight at 4 °C, protein A/G PLUS-agarose 4 h, 5 washes with lysis buffer; immunoblot with anti-PKC; IgG as negative control.

Results are given in words; binding and its absence hold for the method and conditions named. In cells and extracts the contact can be indirect. Binding calls can cover weak binding; strength is not graded here.

Take “Protein kinase C (mouse (endogenous in BV-2)) (enzyme)”: the binding result is given as “binds”.
